Assay [1] has as its target 6xHis-E2F4 (84-413) (human) (UniProt Q16254). Nature of the assay: pull-down.
Assay [2] has as its target T1, endogenous ΔNp73α (HNC-136) (human (endogenous in HNC-136)) (UniProt O15350).
T1 sequence: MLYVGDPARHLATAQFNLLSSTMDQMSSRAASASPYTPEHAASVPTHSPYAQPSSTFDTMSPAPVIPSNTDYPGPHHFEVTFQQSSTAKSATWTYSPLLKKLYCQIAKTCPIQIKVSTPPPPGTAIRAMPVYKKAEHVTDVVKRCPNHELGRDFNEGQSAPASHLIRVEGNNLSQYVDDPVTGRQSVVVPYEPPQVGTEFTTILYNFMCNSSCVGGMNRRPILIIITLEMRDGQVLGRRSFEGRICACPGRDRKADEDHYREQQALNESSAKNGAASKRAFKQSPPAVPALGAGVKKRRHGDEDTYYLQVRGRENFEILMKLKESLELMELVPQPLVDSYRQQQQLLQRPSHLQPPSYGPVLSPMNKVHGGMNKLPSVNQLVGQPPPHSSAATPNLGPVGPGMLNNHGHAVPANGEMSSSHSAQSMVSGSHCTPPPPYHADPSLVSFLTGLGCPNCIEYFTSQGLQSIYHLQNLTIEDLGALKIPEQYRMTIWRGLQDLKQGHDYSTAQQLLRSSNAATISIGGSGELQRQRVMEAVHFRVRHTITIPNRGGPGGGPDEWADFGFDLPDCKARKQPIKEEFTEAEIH
Nature of the assay: co-IP.

The chains behind the UniProt entries cited, without tags or fusion partners. Where a name states a change or a piece, a line headed by the entry shows the natural chain unless it says otherwise. Residues count along the entry.
UniProt Q16254, whole entry: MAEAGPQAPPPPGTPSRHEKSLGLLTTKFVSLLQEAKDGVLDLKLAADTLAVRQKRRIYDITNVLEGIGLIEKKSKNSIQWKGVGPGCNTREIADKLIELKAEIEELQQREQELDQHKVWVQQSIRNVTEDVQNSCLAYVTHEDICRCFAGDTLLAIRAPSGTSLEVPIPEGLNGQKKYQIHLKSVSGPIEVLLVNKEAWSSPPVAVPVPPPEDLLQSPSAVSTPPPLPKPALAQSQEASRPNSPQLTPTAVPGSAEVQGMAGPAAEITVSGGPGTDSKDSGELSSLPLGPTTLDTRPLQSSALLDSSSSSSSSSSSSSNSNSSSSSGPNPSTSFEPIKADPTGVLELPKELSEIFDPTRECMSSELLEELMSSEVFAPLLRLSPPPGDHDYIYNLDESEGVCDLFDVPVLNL
UniProt Q14186, 199-350: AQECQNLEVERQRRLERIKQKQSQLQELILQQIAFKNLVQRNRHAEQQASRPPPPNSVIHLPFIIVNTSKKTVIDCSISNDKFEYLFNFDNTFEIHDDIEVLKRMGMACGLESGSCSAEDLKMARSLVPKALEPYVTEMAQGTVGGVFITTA

Assay [3] addresses T2, HA-ΔNp73α (UniProt O15350).
T2 sequence: T1 sequence
Description: co-IP.

Assay [4] deals with T2, HA-ΔNp73α. Nature of the assay: co-IP. This is another data set of the same source.

Where two headings read alike, the source gives them in different places. No constants are given. Whether binding was seen depends on the method and setting. Binding seen in cells or lysates may run through a third protein. Some entries that bind do so weakly or less than the wild type. For some of these results: Tags and fused reporters may be left off the sequences shown.

In the case of “GST-DP1(199-350) (from UniProt Q14186 199-350) (domain or fragment)”, in assay [1], the binding result was “binds”.

For the substance “endogenous E2F4 (HNC-136) (from UniProt Q16254 1-413)”, the binding entry in assay [2] is given as “binds”.

On to “endogenous E2F4 (38HK) (from UniProt Q16254 1-413)”, for which the binding result in assay [3] and in assay [4] was “binds” in each case.
